No constants are given. Whether binding was seen depends on the method and setting. Some binding calls cover weakened binding; strength is not graded here.
Tests used:
[1] = biological target: Oryza sativa Tetratricopeptide Domain-containing thioredoxin (OsTDX) protein (Oryza sativa) (UniProt Q6ES52); experiment: negative-stain transmission electron microscopy; SEC fractions a, b and c of OsTDX on glow-discharged carbon-coated copper grids, 1% uranyl acetate, FEI Tecnai 20 at 200 kV; both purified
[2] = biological target: Oryza sativa Tetratricopeptide Domain-containing thioredoxin (OsTDX) protein (Oryza sativa) (UniProt Q6ES52); experiment: SEC; FPLC, SEC 650 column, 0.5 mL/min, 25 °C, PBS pH 7.2; calibrated with thyroglobulin (670 kDa), γ-globulin (158 kDa), ovalbumin (44 kDa), myoglobin (17 kDa); both purified
[3] = biological target: Oryza sativa Tetratricopeptide Domain-containing thioredoxin (OsTDX) protein (Oryza sativa) (UniProt Q6ES52); experiment: native gel or EMSA; native-PAGE of purified recombinant OsTDX (10% by the legend, 12% by the methods); both purified

binding [1]: binds | binding [2]: binds | binding [3]: binds
B1: Oryza sativa Tetratricopeptide Domain-containing thioredoxin (OsTDX) protein (natural protein, UniProt Q6ES52 1-317, looked up)
chain: MATAGASSFEDEIMESDIELEGEAVEPDNDPPQKMGDPSVEVSDEKRDQAQLCKNKGVDAFSEGKLDEAIEHLTEAIVLNPTSAIAYATRAVIFVKSKKPNAAIRDADAALKINPDSAKGYKSRGMAKAMLGKWEEAAQDLRMAAKLDYDEEIGAELKKVEPNVLKIEEHRKKYERLRKERDIKKAEMEKQRKHAEEVSAASAALKDGDVIAIHSSSELDTKLKAASSLSRLVVLYFTAAWCGPCRFIGPVCKSLAEKHRNVVFLKVDIDELNSVAYRWNVSSVPSFFFVRNGKEIDKVVGADKNGLERKVAQHGSS
notes: OsTDX, Oryza sativa TPR repeat-containing thioredoxin; full-length cDNA amplified from a rice leaf cDNA library and cloned into pGEX-2T; predicted MW ~35 kDa; also called rice Trx-like protein; recombinant OsTDX; source: E. coli BL21(DE3), purified (glutathione-agarose, GST cleaved by thrombin, FPLC SEC 650 column)

From paper PMC6471494, “Functional Mechanisms Underlying the Antimicrobial Activity of the Oryza sativa Trx-like Protein” (International Journal of Molecular Sciences, 2019)
